Test [1] concerns the target HCMV pUL53-Flag (human cytomegalovirus (HCMV)) (UniProt P16794). Kind of test: co-IP.
The target of test [2] is HCMV pUL50-HA (human cytomegalovirus (HCMV)) (UniProt P16791). Kind of test: co-IP.

Protein sequences, listed by entry. Tags and fused reporters are not part of them.
UniProt P16794: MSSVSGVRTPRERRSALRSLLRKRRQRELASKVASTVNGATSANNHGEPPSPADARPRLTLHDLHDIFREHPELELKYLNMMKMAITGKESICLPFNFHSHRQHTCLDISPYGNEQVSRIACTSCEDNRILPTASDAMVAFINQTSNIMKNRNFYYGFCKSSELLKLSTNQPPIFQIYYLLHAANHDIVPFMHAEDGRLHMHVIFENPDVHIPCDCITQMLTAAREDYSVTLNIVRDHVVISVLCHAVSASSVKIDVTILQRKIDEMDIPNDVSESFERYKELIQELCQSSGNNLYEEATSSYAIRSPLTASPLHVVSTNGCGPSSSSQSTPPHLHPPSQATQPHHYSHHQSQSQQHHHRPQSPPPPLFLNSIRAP
UniProt P16791: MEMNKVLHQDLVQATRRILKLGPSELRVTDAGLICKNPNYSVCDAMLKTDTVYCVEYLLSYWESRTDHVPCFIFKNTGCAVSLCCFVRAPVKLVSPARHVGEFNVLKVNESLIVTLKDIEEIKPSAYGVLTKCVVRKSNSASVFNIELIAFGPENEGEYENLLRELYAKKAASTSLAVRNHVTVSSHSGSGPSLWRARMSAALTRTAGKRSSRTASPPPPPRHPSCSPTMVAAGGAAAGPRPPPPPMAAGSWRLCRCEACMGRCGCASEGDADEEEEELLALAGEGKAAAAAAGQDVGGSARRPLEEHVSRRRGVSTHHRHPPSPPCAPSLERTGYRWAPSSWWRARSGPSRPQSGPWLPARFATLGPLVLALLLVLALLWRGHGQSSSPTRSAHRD

Results are given in words; binding and its absence hold for the method and conditions named. In cells and extracts the contact can be indirect. Some binding calls cover weakened binding; strength is not graded here.

Regarding “HCMV pUL50-HA (from UniProt P16791 1-397)”, the binding entry in test [1] is listed as “binds”.
With “HCMV pUL50-RFP (from UniProt P16791 1-397)”, the binding result in test [2] is listed as “no binding”; in test [1], “binds”.
“HCMV pUL50-AU1 (from UniProt P16791 1-397)”: the binding result is reported as “no binding” in test [2] and “binds” in test [1].
